{"source": "PubChem BioAssay AID504842", "about": "(National Center for Advancing Translational Sciences (NCATS), 2011)", "note": "Out of some 330,000 compounds screened, about 100 (0.03%) were called active. Inconclusive means that the source gave no clear call. Such entries were picked first, then a sample of the others. The call rests on the fitted dose curve; in most records, active means well fitted inhibition curve with a large enough effect; inconclusive means small, poorly fitted or top-dose-only effect; inactive means flat fitted curve, though single readings scatter. A potency beside an inconclusive call is a rough fit, not a confirmed value. Potency means the concentration at half of the fitted maximal effect.", "data": [{"tested_on": "Chaperonin Mm-Cpn (Methanococcus maripaludis)", "assay": "Inhibitors of TCP-1 ring complex (TRiC) of Methanococcus maripaludis (MmCpn): qHTS; further: nearly all actives have a fitted effect of over 80% in size;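 on potency: enzyme at 25 nM with ATP substrate at 10 µM during the reaction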", "conditions": "purified Mm-Cpn ATPase, ADP Transcreener TR-FRET", "outline": "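Quantitative HTS used 25 nM Mm-CPN and 10 uM ATP in magnesium/KCl Tris buffer, pH 7.4, with 1 mM DTT. Hydrolysis ran 30 min at 37°C; ADP was read by HTRF.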", "values": [{"smiles": "COc1ccc(Cl)cc1NC(=O)CS(=O)(=O)c1cccc2nsnc12", "Potency": "inconclusive: 112 µM [inhibitor, partial curve, poor fit]"}, {"smiles": "COc1ccccc1C(=O)Nc1ccc(Oc2ncnc3sc(-c4ccccc4)cc23)cc1", "Potency": "inconclusive: 112 µM [inhibitor, single point]"}, {"smiles": "COc1ccc(-c2c(-c3ccc(OC)nc3)c3ccccc3n2C)cc1", "Potency": "inconclusive: 224 µM [inhibitor, partial curve, poor fit]"}, {"smiles": "O=C(OCn1ncc(Br)c(Br)c1=O)c1ccc(F)cc1", "Potency": "inconclusive: 39.8 µM [inhibitor, partial curve, poor fit]"}, {"smiles": "CN(Cc1cc(=O)n2ccsc2n1)C1CCCCC1", "Potency": "inconclusive: 10 µM [inhibitor, single point]"}, {"smiles": "CC(C)c1ccc(NS(=O)(=O)c2cccc3cccnc23)cc1", "Potency": "inconclusive: 20 µM [inhibitor, single point]"}, {"smiles": "COc1cccc(NC(=O)Nc2ccncc2)c1", "Potency": "inactive"}, {"smiles": "COc1ccc(-c2nnc3sc(CCN4C(=O)c5ccccc5C4=O)nn23)cc1", "Potency": "inconclusive: 100 µM [inhibitor, single point]"}, {"smiles": "CCN(CC(=O)N1CCOCC1)S(=O)(=O)c1ccc(F)cc1", "Potency": "inconclusive: 28.2 µM [inhibitor, single point]"}, {"smiles": "O=C1CSC(c2nn(-c3ccccc3)cc2-c2cc3ccccc3oc2=O)N1Cc1ccco1", "note": "(configuration not stated)", "Potency": "inconclusive: 100 µM [inhibitor, partial curve, poor fit]"}, {"smiles": "CCOC(=O)c1c(NC(=O)COc2ncnc3ccccc23)sc(C(C)=O)c1C", "Potency": "inconclusive: 282 µM [inhibitor, partial curve, poor fit]"}, {"smiles": "COc1ccc(/C=C/C(=O)Nc2cccc(S(=O)(=O)NC3=NCCCCC3)c2)c(OC)c1", "Potency": "inconclusive: 8.91 µM [inhibitor, partial curve, poor fit]"}, {"smiles": "CC(=O)c1ccc(NC(=O)COC(=O)c2ccccc2Sc2ccccc2C#N)cc1", "Potency": "inconclusive: 100 µM [inhibitor, partial curve, poor fit]"}, {"smiles": "Cc1ccn2c(C(=O)NN=C3CCN(C)CC3)c(C)nc2c1", "Potency": "inactive"}, {"smiles": "COc1ccc2[nH]c(=O)c(CN(C(=O)NC3CCCCC3)C3CCCCC3)cc2c1", "Potency": "inactive"}, {"smiles": "COc1ccc(-c2nc3ccc(C(=O)NCC(OC)OC)cc3nc2-c2ccc(OC)cc2)cc1", "Potency": "inconclusive: 70.8 µM [inhibitor, single point]"}, {"smiles": "CCOC(=O)C1CCN(C(=O)c2ccccc2NC(=O)C2=C(C)OCCS2)CC1", "Potency": "inconclusive: 22.4 µM [inhibitor, single point]"}, {"smiles": "COc1ccc(Oc2nnc(-c3ccccc3)cc2C#N)cc1", "Potency": "inconclusive: 15.8 µM [inhibitor, single point]"}, {"smiles": "CCC(Sc1ccc2nnc(-c3cccnc3)n2n1)C(=O)O", "note": "(configuration not stated)", "Potency": "inconclusive: 224 µM [inhibitor, partial curve, poor fit]"}, {"smiles": "CC(=O)N(Cc1cc(=O)[nH]c2ccccc12)c1cccc(C)c1", "Potency": "inconclusive: 224 µM [inhibitor, partial curve, poor fit]"}, {"smiles": "CCOC(=O)c1sc(=NC(=O)c2ccc(Cl)s2)n(C)c1C", "Potency": "inconclusive: 70.8 µM [inhibitor, single point]"}, {"smiles": "Cc1cc(=O)[nH]c(N/N=C/c2cccc(Br)c2)n1", "Potency": "inconclusive: 22.4 µM [inhibitor, single point]"}, {"smiles": "O=C(c1ccco1)N1CCc2[nH]nc(-c3ccccc3)c2C1", "Potency": "inactive"}, {"smiles": "CCCn1c2c(c(=N)c3c1CCC3)CCC2", "Potency": "inactive"}, {"smiles": "COC(=O)C1=C(O)/C(=C\\c2cc(C)n(-c3ccccc3C)c2C)N=C1C", "Potency": "inconclusive: 70.8 µM [inhibitor, single point]"}, {"smiles": "CCOc1ccc2[nH]c3c(NCCC(C)C)ncnc3c2c1", "Potency": "inconclusive: 11.2 µM [inhibitor, single point]"}, {"smiles": "Cc1ccc(NC(=O)OC(C)CNC(=O)Oc2cccc(C)c2)cc1", "note": "(configuration not stated)", "Potency": "inactive"}, {"smiles": "CCCN1C2CCCC1CC(NC(=O)c1ccc(OC)cc1)C2", "note": "(configuration not stated)", "Potency": "inconclusive: 28.2 µM [inhibitor, single point]"}, {"smiles": "O=C(c1cccs1)N(Cc1ccco1)c1nc(-c2ccc(F)cc2)cs1", "Potency": "inconclusive: 89.1 µM [inhibitor, single point]"}, {"smiles": "N#CC1(c2ccccc2)CCCN1C(=O)c1ccccc1Cl", "note": "(configuration not stated)", "Potency": "inactive"}, {"smiles": "O=c1cc(-c2ccc(O)cc2)oc2ccc3ccccc3c12", "Potency": "inconclusive: 11.2 µM [inhibitor, single point]"}, {"smiles": "COc1ccc(C(=O)N/N=C(/C)c2ccc(N3CCCCC3)cc2)cc1", "Potency": "inactive"}, {"smiles": "Cc1cccn2c(=O)c3cc(C(=O)NCCN4CCOCC4)c(=N)n(CCCN4CCOCC4)c3nc12", "Potency": "inactive"}, {"smiles": "COc1cccc(/C=N/n2c(C3CCCCC3)n[nH]c2=S)c1O", "Potency": "inactive"}, {"smiles": "O=C(N/N=C\\C=C\\c1ccco1)c1cc(-c2ccc3ccccc3c2)n[nH]1", "Potency": "inactive"}, {"smiles": "COc1ccc(NC(=O)CN2CCN(C3c4ccccc4-c4ccccc43)CC2)c(OC)c1", "Potency": "inactive"}, {"smiles": "CC(=O)c1ccc(OCc2cc(C(=O)N(C)Cc3ccon3)no2)cc1", "Potency": "inactive"}, {"smiles": "O=c1c2oc3ccccc3c2ncn1Cc1ccc(Cl)cc1", "Potency": "inconclusive: 794 µM [inhibitor, partial curve, poor fit]"}, {"smiles": "CCCCc1nc2ccccc2[nH]1", "Potency": "inconclusive: 63.1 µM [inhibitor, single point]"}, {"smiles": "COc1ccc(C#Cc2ccc3c(c2)c(=O)c2ccccc2n3C)cc1", "Potency": "inconclusive: 158 µM [inhibitor, partial curve, poor fit]"}, {"smiles": "CN(C)/C=N/c1sc2c(c1C#N)CC(C)(C)NC2(C)C", "Potency": "inconclusive: 56.2 µM [inhibitor, single point]"}, {"smiles": "C=CCn1c(=O)c2c(nc3n2CC(C)CN3c2cccc(OC)c2)n(C)c1=O", "note": "(configuration not stated)", "Potency": "inconclusive: 12.6 µM [inhibitor, single point]"}, {"smiles": "O=C(CCCn1cncn1)N1CCCC(N2CCN(c3ccccc3F)CC2)C1", "note": "(configuration not stated)", "Potency": "inconclusive: 17.8 µM [inhibitor, single point]"}, {"smiles": "Cn1cc(Cl)c(-c2n[nH]c(=S)n2-c2ccc(F)cc2)n1", "Potency": "inconclusive: 1260 µM [inhibitor, partial curve, poor fit]"}, {"smiles": "CNc1nc(-c2ccc3c(c2)CCN3C(=O)c2ccccc2C)cs1", "Potency": "inconclusive: 100 µM [inhibitor, single point]"}, {"smiles": "CCOC(=O)C1=C(CSc2n[nH]c(N)n2)NC(=O)NC1C", "note": "(configuration not stated)", "Potency": "inconclusive: 14.1 µM [inhibitor, single point]"}, {"smiles": "Cn1c(=O)c(Nc2ccc(O)cc2)c2c3c(cccc31)C(=O)c1ccccc1-2", "Potency": "inconclusive: 79.4 µM [inhibitor, single point]"}, {"smiles": "CC(=O)c1cccc(NC(=O)COC(=O)c2cccs2)c1", "Potency": "inconclusive: 56.2 µM [inhibitor, single point]"}, {"smiles": "CCc1ccccc1NC(=O)CN(C)Cc1c(O)ccc2ccccc12", "Potency": "inconclusive: 6.31 µM [inhibitor, single point]"}, {"smiles": "CCCn1c(N)c(C(=O)CN(C)CC(=O)Nc2ccc(C)cc2)c(=O)[nH]c1=O", "Potency": "inactive"}, {"smiles": "CN(C)c1ccc(/C=C2\\SC(=S)N(Nc3ncc(C(F)(F)F)cc3Cl)C2=O)cc1", "Potency": "inactive"}, {"smiles": "CC1CCN(S(=O)(=O)c2ccc3c(c2)N(CC(=O)NCCCN2CCCC(C)C2)C(=O)CS3)CC1", "note": "(configuration not stated)", "Potency": "inconclusive: 5.62 µM [inhibitor, single point]"}, {"smiles": "C=CCCC(=O)Nc1nc(C)c(-c2csc(Nc3cc(Cl)ccc3OC)n2)s1", "Potency": "inconclusive: 100 µM [inhibitor, single point]"}, {"smiles": "Cc1cccc(NC(=O)CSc2cccc[n+]2[O-])c1C", "Potency": "inconclusive: 56.2 µM [inhibitor, single point]"}, {"smiles": "NS(=O)(=O)c1ccc(NC(=S)Nc2ccn(Cc3cccc4ccccc34)n2)cc1", "Potency": "inconclusive: 100 µM [inhibitor, single point]"}, {"smiles": "COc1cccc(NC(=S)NCc2ccc3c(c2)cc(C)n3C)c1", "Potency": "inconclusive: 112 µM [inhibitor, partial curve, poor fit]"}, {"smiles": "Cc1nc(-c2ccccc2)sc1C1(C)CC(c2ccc(OC(F)(F)F)cc2)=NO1", "note": "(configuration not stated)", "Potency": "inconclusive: 17.8 µM [inhibitor, single point]"}, {"smiles": "CCOC(=O)Cc1csc(NC(=O)c2cnc3sc(C)cn3c2=O)n1", "Potency": "inconclusive: 11.2 µM [inhibitor, single point]"}, {"smiles": "CC(C)NC(=O)C1CCN(C(=O)N(C)C)CC1", "Potency": "inconclusive: 89.1 µM [inhibitor, single point]"}, {"smiles": "CC1(C)C2CCC1(C)C(NCC(O)COc1ccc(C#N)cc1)C2", "note": "(configuration not stated)", "Potency": "inconclusive: 22.4 µM [inhibitor, single point]"}, {"smiles": "S=c1[nH]c2ccccc2n2c(=S)[nH]nc12", "Potency": "inconclusive: 12.6 µM [inhibitor, partial curve, poor fit]"}, {"smiles": "CN(C)CCOc1ccc(C(C)(C)c2ccccc2)cc1", "Potency": "inactive"}, {"smiles": "CC1=NN(C(N)=S)C(=O)C1N=Nc1cccc(C(=O)O)c1", "note": "(configuration not stated)", "Potency": "inconclusive: 22.4 µM [inhibitor, single point]"}, {"smiles": "CCOC(=O)Cn1c(=NC(=O)CSC(C)=O)sc2cc(F)ccc21", "Potency": "inconclusive: 562 µM [inhibitor, partial curve, poor fit]"}, {"smiles": "COc1cc(/C=C/[N+](=O)[O-])ccc1OCc1cccc(C(=O)O)c1", "Potency": "inactive"}, {"smiles": "N#Cc1c(N2CCSCC2)nsc1-c1ccccc1Cl", "Potency": "inconclusive: 126 µM [inhibitor, partial curve, poor fit]"}, {"smiles": "CN(Cc1nnc(-c2ccc(F)cc2)o1)c1ccccc1", "Potency": "inconclusive: 20 µM [inhibitor, single point]"}]}]}
